Results taken from the supplement of paper PMC4635364.
Structures can show the parent of a compound that is named as a salt. This is one part of the list. Repeats in this data set agree poorly, so a single value says little.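 Human fetal ventral-midbrain neural progenitor line ReNCell VM, differentiated without mitogens. Images stained for doublecortin (early neurons) or tyrosine hydroxylase (dopaminergic neurons) were scored by blinded raters against untreated wells (0 = no change). Repeats and both raters were averaged, and compounds averaging 2 or higher were picked as hits for retesting.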

test system: ReNCell VM; assay: dopaminergic neuron differentiation score (TH+ cell fraction vs untreated, manual image score) (score (0 to 3)); higher = more TH+ dopaminergic neuron differentiation; details: library: Tocriscreen; 2 uM; 4 weeks; BDNF 10 ng/ml + GDNF 10 ng/ml

Dopaminergic neuron differentiation score, inactive:
COc1cc2c(Nc3ccc(NC(=O)c4ccccc4)cc3)ncnc2cc1OCCCN1CCOCC1 0, O=c1[nH]c2cc(C(F)(F)F)c(N3CCOCC3)cc2n(CP(=O)(O)O)c1=O 0, N[C@@H](CC(=O)Nc1ccc(Oc2cc(F)c(F)cc2Br)cc1)C(=O)O 0, Cc1cc(NC(=O)Nc2ccc(N(C)C)cc2)c2cc(F)cc(F)c2n1 0, NC(=O)c1ccc(-c2nc(-c3ccccn3)c(-c3ccc4c(c3)OCO4)[nH]2)cc1 0, O=C(O)CN1C(=O)c2cccc3cccc(c23)C1=O [Alrestatin] 0, CC#CCOC(=O)C1=CCCN(C)C1 [Arecaidine but-2-ynyl ester tosylate] 0
